# The list shows a part of the results. Most of these values are background signal.
# How the values were obtained:
# Assay in all cases: fluorescence intensity of antibody binding to polysaccharide-coupled beads; higher = stronger binding
# [1] = molecular target: pneumococcal polysaccharide Pn38
# [2] = molecular target: pneumococcal polysaccharide Pn39
# [3] = molecular target: pneumococcal polysaccharide Pn4
# [4] = molecular target: pneumococcal polysaccharide Pn40
# [5] = molecular target: pneumococcal polysaccharide Pn41A
# [6] = molecular target: pneumococcal polysaccharide Pn41F
# [7] = molecular target: pneumococcal polysaccharide Pn42
# [8] = molecular target: pneumococcal polysaccharide Pn43
# [9] = molecular target: pneumococcal polysaccharide Pn44
# [10] = molecular target: pneumococcal polysaccharide Pn45
# [11] = molecular target: pneumococcal polysaccharide Pn46
# [12] = molecular target: pneumococcal polysaccharide Pn47A
# [13] = molecular target: pneumococcal polysaccharide Pn47F
# [14] = molecular target: pneumococcal polysaccharide Pn48
# [15] = molecular target: pneumococcal polysaccharide Pn5
# [16] = molecular target: pneumococcal polysaccharide Pn6A
# [17] = molecular target: pneumococcal polysaccharide Pn6B
# [18] = molecular target: pneumococcal polysaccharide Pn6C
# [19] = molecular target: pneumococcal polysaccharide Pn6D
# [20] = molecular target: pneumococcal polysaccharide Pn7A
# [21] = molecular target: pneumococcal polysaccharide Pn7B
# [22] = molecular target: pneumococcal polysaccharide Pn7C
# [23] = molecular target: pneumococcal polysaccharide Pn7F
# [24] = antibody concentration 81.7561 ng/mL
# [25] = antibody concentration 437.17 ng/mL
# [26] = antibody concentration 2337.65 ng/mL
# [27] = antibody concentration 12500 ng/mL
# [28] = antibody concentration 0.1 ng/mL
# [29] = antibody concentration 0.534724 ng/mL
# [30] = antibody concentration 2.8593 ng/mL
# [31] = antibody concentration 15.2894 ng/mL
binder,measurement,setting,value
4-80.4 (protein) chain 1: QVQLQESGPGLVKPSETLSLTCAVSGGSFSSYWWSWIRQSPGKGLEWIGEISGNSGSTNYNPSLKSRVTISKDASKNQFSLKLSSVTAADTAVYYCARYKEYWGQGVLVTVSS chain 2: DVVMTQSPLSLLITPGQPASISCRSSQSLVHSNGNTYLSWYQQKPGQPPRRLLYEVSNRDSGVPDRFSGSGAGTDFTLKISRVEAEDVGVYYCGQGTHLPYSFGQGTKVEIK,fluorescence intensity,[1]; [24],24.8 MFI
same,fluorescence intensity,[1]; [25],27.5 MFI
same,fluorescence intensity,[1]; [26],28 MFI
same,fluorescence intensity,[1]; [27],34 MFI
same,fluorescence intensity,[2]; [28],19 MFI
same,fluorescence intensity,[2]; [29],17 MFI
same,fluorescence intensity,[2]; [30],18.2 MFI
same,fluorescence intensity,[2]; [31],19 MFI
same,fluorescence intensity,[2]; [24],19 MFI
same,fluorescence intensity,[2]; [25],18 MFI
same,fluorescence intensity,[2]; [26],19 MFI
same,fluorescence intensity,[2]; [27],33 MFI
same,fluorescence intensity,[3]; [28],17.5 MFI
same,fluorescence intensity,[3]; [29],17 MFI
same,fluorescence intensity,[3]; [30],18 MFI
same,fluorescence intensity,[3]; [31],18 MFI
same,fluorescence intensity,[3]; [24],19 MFI
same,fluorescence intensity,[3]; [25],19 MFI
same,fluorescence intensity,[3]; [26],21 MFI
same,fluorescence intensity,[3]; [27],31.5 MFI
same,fluorescence intensity,[4]; [28],15 MFI
same,fluorescence intensity,[4]; [29],17.5 MFI
same,fluorescence intensity,[4]; [30],17 MFI
same,fluorescence intensity,[4]; [31],16.5 MFI
same,fluorescence intensity,[4]; [24],17 MFI
same,fluorescence intensity,[4]; [25],17 MFI
same,fluorescence intensity,[4]; [26],18.5 MFI
same,fluorescence intensity,[4]; [27],43 MFI
same,fluorescence intensity,[5]; [28],24 MFI
same,fluorescence intensity,[5]; [29],23.5 MFI
same,fluorescence intensity,[5]; [30],22.5 MFI
same,fluorescence intensity,[5]; [31],22.5 MFI
same,fluorescence intensity,[5]; [24],23.5 MFI
same,fluorescence intensity,[5]; [25],24 MFI
same,fluorescence intensity,[5]; [26],24.5 MFI
same,fluorescence intensity,[5]; [27],28.5 MFI
same,fluorescence intensity,[6]; [28],13 MFI
same,fluorescence intensity,[6]; [29],12.5 MFI
same,fluorescence intensity,[6]; [30],12.5 MFI
same,fluorescence intensity,[6]; [31],13.5 MFI
same,fluorescence intensity,[6]; [24],14 MFI
same,fluorescence intensity,[6]; [25],12 MFI
same,fluorescence intensity,[6]; [26],14.5 MFI
same,fluorescence intensity,[6]; [27],19 MFI
same,fluorescence intensity,[7]; [28],11.5 MFI
same,fluorescence intensity,[7]; [29],11.5 MFI
same,fluorescence intensity,[7]; [30],11.5 MFI
same,fluorescence intensity,[7]; [31],12 MFI
same,fluorescence intensity,[7]; [24],10.8 MFI
same,fluorescence intensity,[7]; [25],12.5 MFI
same,fluorescence intensity,[7]; [26],12 MFI
same,fluorescence intensity,[7]; [27],24 MFI
same,fluorescence intensity,[8]; [28],15.5 MFI
same,fluorescence intensity,[8]; [29],13.5 MFI
same,fluorescence intensity,[8]; [30],15.5 MFI
same,fluorescence intensity,[8]; [31],15.5 MFI
same,fluorescence intensity,[8]; [24],16 MFI
same,fluorescence intensity,[8]; [25],16.5 MFI
same,fluorescence intensity,[8]; [26],20.5 MFI
same,fluorescence intensity,[8]; [27],73.5 MFI
same,fluorescence intensity,[9]; [28],23.8 MFI
same,fluorescence intensity,[9]; [29],24 MFI
same,fluorescence intensity,[9]; [30],25.5 MFI
same,fluorescence intensity,[9]; [31],22 MFI
same,fluorescence intensity,[9]; [24],25.5 MFI
same,fluorescence intensity,[9]; [25],24.5 MFI
same,fluorescence intensity,[9]; [26],25.8 MFI
same,fluorescence intensity,[9]; [27],31 MFI
same,fluorescence intensity,[10]; [28],10 MFI
same,fluorescence intensity,[10]; [29],11 MFI
same,fluorescence intensity,[10]; [30],11.5 MFI
same,fluorescence intensity,[10]; [31],10 MFI
same,fluorescence intensity,[10]; [24],11 MFI
same,fluorescence intensity,[10]; [25],11 MFI
same,fluorescence intensity,[10]; [26],12.5 MFI
same,fluorescence intensity,[10]; [27],15.8 MFI
same,fluorescence intensity,[11]; [28],23 MFI
same,fluorescence intensity,[11]; [29],23.5 MFI
same,fluorescence intensity,[11]; [30],23 MFI
same,fluorescence intensity,[11]; [31],24.2 MFI
same,fluorescence intensity,[11]; [24],23 MFI
same,fluorescence intensity,[11]; [25],24.8 MFI
same,fluorescence intensity,[11]; [26],25.5 MFI
same,fluorescence intensity,[11]; [27],43.8 MFI
same,fluorescence intensity,[12]; [28],16 MFI
same,fluorescence intensity,[12]; [29],15.5 MFI
same,fluorescence intensity,[12]; [30],15 MFI
same,fluorescence intensity,[12]; [31],16 MFI
same,fluorescence intensity,[12]; [24],16.5 MFI
same,fluorescence intensity,[12]; [25],15.5 MFI
same,fluorescence intensity,[12]; [26],16.8 MFI
same,fluorescence intensity,[12]; [27],20 MFI
same,fluorescence intensity,[13]; [28],11 MFI
same,fluorescence intensity,[13]; [29],11.5 MFI
same,fluorescence intensity,[13]; [30],11 MFI
same,fluorescence intensity,[13]; [31],10.5 MFI
same,fluorescence intensity,[13]; [24],12 MFI
same,fluorescence intensity,[13]; [25],12 MFI
same,fluorescence intensity,[13]; [26],14.2 MFI
same,fluorescence intensity,[13]; [27],31.5 MFI
same,fluorescence intensity,[14]; [28],21 MFI
same,fluorescence intensity,[14]; [29],19.8 MFI
same,fluorescence intensity,[14]; [30],19 MFI
same,fluorescence intensity,[14]; [31],20.8 MFI
same,fluorescence intensity,[14]; [24],20.5 MFI
same,fluorescence intensity,[14]; [25],22 MFI
same,fluorescence intensity,[14]; [26],24.5 MFI
same,fluorescence intensity,[14]; [27],42.5 MFI
same,fluorescence intensity,[15]; [28],8.5 MFI
same,fluorescence intensity,[15]; [29],9 MFI
same,fluorescence intensity,[15]; [30],8.5 MFI
same,fluorescence intensity,[15]; [31],8.25 MFI
same,fluorescence intensity,[15]; [24],9.25 MFI
same,fluorescence intensity,[15]; [25],8.75 MFI
same,fluorescence intensity,[15]; [26],10.5 MFI
same,fluorescence intensity,[15]; [27],31 MFI
same,fluorescence intensity,[16]; [28],21.2 MFI
same,fluorescence intensity,[16]; [29],20.8 MFI
same,fluorescence intensity,[16]; [30],20.2 MFI
same,fluorescence intensity,[16]; [31],20 MFI
same,fluorescence intensity,[16]; [24],23 MFI
same,fluorescence intensity,[16]; [25],21 MFI
same,fluorescence intensity,[16]; [26],24 MFI
same,fluorescence intensity,[16]; [27],33 MFI
same,fluorescence intensity,[17]; [28],19 MFI
same,fluorescence intensity,[17]; [29],18.8 MFI
same,fluorescence intensity,[17]; [30],20 MFI
same,fluorescence intensity,[17]; [31],18.5 MFI
same,fluorescence intensity,[17]; [24],18 MFI
same,fluorescence intensity,[17]; [25],20.5 MFI
same,fluorescence intensity,[17]; [26],20.5 MFI
same,fluorescence intensity,[17]; [27],31.2 MFI
same,fluorescence intensity,[18]; [28],17.2 MFI
same,fluorescence intensity,[18]; [29],15 MFI
same,fluorescence intensity,[18]; [30],17 MFI
same,fluorescence intensity,[18]; [31],18.8 MFI
same,fluorescence intensity,[18]; [24],17.2 MFI
same,fluorescence intensity,[18]; [25],20.8 MFI
same,fluorescence intensity,[18]; [26],31 MFI
same,fluorescence intensity,[18]; [27],43 MFI
same,fluorescence intensity,[19]; [28],18.5 MFI
same,fluorescence intensity,[19]; [29],17.5 MFI
same,fluorescence intensity,[19]; [30],17.5 MFI
same,fluorescence intensity,[19]; [31],18 MFI
same,fluorescence intensity,[19]; [24],16.5 MFI
same,fluorescence intensity,[19]; [25],17.5 MFI
same,fluorescence intensity,[19]; [26],18 MFI
same,fluorescence intensity,[19]; [27],21.5 MFI
same,fluorescence intensity,[20]; [28],19 MFI
same,fluorescence intensity,[20]; [29],20.5 MFI
same,fluorescence intensity,[20]; [30],19.5 MFI
same,fluorescence intensity,[20]; [31],19 MFI
same,fluorescence intensity,[20]; [24],20.2 MFI
same,fluorescence intensity,[20]; [25],20 MFI
same,fluorescence intensity,[20]; [26],29.5 MFI
same,fluorescence intensity,[20]; [27],116 MFI
same,fluorescence intensity,[21]; [28],16 MFI
same,fluorescence intensity,[21]; [29],17.5 MFI
same,fluorescence intensity,[21]; [30],16.5 MFI
same,fluorescence intensity,[21]; [31],17.5 MFI
same,fluorescence intensity,[21]; [24],15 MFI
same,fluorescence intensity,[21]; [25],16 MFI
same,fluorescence intensity,[21]; [26],19 MFI
same,fluorescence intensity,[21]; [27],32 MFI
same,fluorescence intensity,[22]; [28],14 MFI
same,fluorescence intensity,[22]; [29],15.2 MFI
same,fluorescence intensity,[22]; [30],16 MFI
same,fluorescence intensity,[22]; [31],16.8 MFI
same,fluorescence intensity,[22]; [24],16.2 MFI
same,fluorescence intensity,[22]; [25],17 MFI
same,fluorescence intensity,[22]; [26],17.5 MFI
same,fluorescence intensity,[22]; [27],27 MFI
same,fluorescence intensity,[23]; [28],14.5 MFI
same,fluorescence intensity,[23]; [29],14.5 MFI
same,fluorescence intensity,[23]; [30],14 MFI
same,fluorescence intensity,[23]; [31],14 MFI
same,fluorescence intensity,[23]; [24],15 MFI
same,fluorescence intensity,[23]; [25],14.5 MFI
same,fluorescence intensity,[23]; [26],19 MFI
same,fluorescence intensity,[23]; [27],60.5 MFI

# Another view of part of the listing above.
binder | measurement | setting | value
4-80.4 (protein) chain 1: QVQLQESGPGLVKPSETLSLTCAVSGGSFSSYWWSWIRQSPGKGLEWIGEISGNSGSTNYNPSLKSRVTISKDASKNQFSLKLSSVTAADTAVYYCARYKEYWGQGVLVTVSS chain 2: DVVMTQSPLSLLITPGQPASISCRSSQSLVHSNGNTYLSWYQQKPGQPPRRLLYEVSNRDSGVPDRFSGSGAGTDFTLKISRVEAEDVGVYYCGQGTHLPYSFGQGTKVEIK | fluorescence intensity | [1]; [25] | 27.5 MFI
same | fluorescence intensity | [3]; [26] | 21 MFI
same | fluorescence intensity | [6]; [30] | 12.5 MFI
same | fluorescence intensity | [8]; [26] | 20.5 MFI
same | fluorescence intensity | [17]; [26] | 20.5 MFI
same | fluorescence intensity | [18]; [28] | 17.2 MFI

# Part of the list above, tab-delimited:
binder	measurement	setting	value
4-80.4 (protein) chain 1: QVQLQESGPGLVKPSETLSLTCAVSGGSFSSYWWSWIRQSPGKGLEWIGEISGNSGSTNYNPSLKSRVTISKDASKNQFSLKLSSVTAADTAVYYCARYKEYWGQGVLVTVSS chain 2: DVVMTQSPLSLLITPGQPASISCRSSQSLVHSNGNTYLSWYQQKPGQPPRRLLYEVSNRDSGVPDRFSGSGAGTDFTLKISRVEAEDVGVYYCGQGTHLPYSFGQGTKVEIK	fluorescence intensity	[15]; [24]	9.25 MFI
same	fluorescence intensity	[17]; [26]	20.5 MFI
